## Assay results

From PubChem BioAssay record AID1159506 (NCATS, 2015).

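Genome-wide siRNA knockdown in TC32 Ewing sarcoma cells, comparing luciferase light from an NR0B1-promoter reporter with a CMV-promoter reporter 48 hours after transfection. Each siRNA was applied at 20 nM. A z-score of the log NR0B1-over-CMV signal, less the median of siRNAs with the same seed; more negative means a stronger specific loss of the NR0B1 reporter.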

The strongest results of the screen are mostly left out here. Sequences are the guide (antisense) strand, without overhang.

| strand | target gene | seed-corrected z-score |
|---|---|---|
| `AUAUCUCCCAUUCAUCAGC` | PPCDC | 0.1914 |
| `AUGAUUUGAAAUGAGUGCC` | FAM170B | 0.9928 |
| `UAAGGGAAAGGAGCGAGAA` | ZNF843 | -0.3962 |
| `AAAUAGGUCACUCCCUUGG` | SDK1 | 0.9932 |
| `UUGAGCCGCAGAGUUCUCC` | LIM2 | 0.6352 |
| `UGUACAUUUUAUCUUGUCG` | TRAT1 | 0.5185 |
| `UUGCCGACCACUGCAAGUG` | APLP1 | 0.5908 |
| `UAUAAUUCUCUCCUCGUUC` | IFT140 | 0.4593 |
| `UUCAUAAUGAGCCCGAUGG` | FBXO21 | 1.131 |
| `UAAAUUCUCAAAUACGCUG` | ATRX | 0.205 |
| `UUUACGAUAAGGGUUGUUG` | POLQ | -0.07226 |
| `UCAUGGAUCUGGUCAAAGG` | STX17 | -0.6496 |
| `UAUGUAAGUUUCGAAAACC` | PGR | -0.09141 |
| `UUGGGUUUAGGUGUUGUUC` | RPL37 | -1.194 |
| `UUCUCGGAUGUGAAGAUCC` | KIF27 | 0.4395 |
| `UCACAGACCAUAAUUUUGG` | CNTFR | -0.4894 |
| `UCUUGAUUCAUGACAUCUG` | RPUSD2 | 0.4534 |
| `AAACCUCCAGGUAUCUUCC` | LILRB3 | -0.0967 |
| `UCUGGAGAGGUAAUGAUCG` | ARHGEF4 | 0.5075 |
| `UACAUUCGAAGGUCGCGCC` | RNF5 | 0.09377 |
| `AGCUUUACAAGUUAUAUUC` | HIGD1A | 2.903 |
| `UAUCCUCUCCUCUUGGAUC` | HLA-B | 0.08036 |
| `AUGUCUACGAGGAAUCUGG` | LOC647983 | 0.2969 |
| `AACGUAAUGAGAAAGAGUC` | E2F6P4 | -0.1522 |
| `AAAUGGUCAAUAGUGCUGG` | OR6C65 | 0.1077 |
| `UUAGUGAUUACUGCUCGGA` | MAGEA1 | 0.825 |
| `UGUUAAAAUAGAGUGAGCC` | OLFM3 | 0.6253 |
| `UUUCUAACAAGAUAGCUUC` | REC8 | 0.8784 |
| `UGAUGUCAUAUAUUCUUCG` | E2F6P4 | -0.3851 |
| `AAGAGGUACAUGGUCAUCC` | GPRC5B | 0.001975 |
| `UGACAGAUGAGUGCGCAGG` | CCM2L | 0.4733 |
| `AAAGAGUUUGAUAGGUUCC` | C8orf86 | -0.1866 |
| `UCAGGGCAAACUUCUCUGG` | SMARCB1 | -0.7896 |
| `AUUUGUUCCAUUUUCAGGA` | STMN2 | 3.211 |
| `UUUCCUGCACGAAAUAUUG` | MAGEA6 | -0.3139 |
| `AACAUCGUCAUAGUUAUAC` | MRPS18A | 0.06954 |
| `UUUCUUCUACUUUCCCAGC` | CCNK | -0.08881 |
| `UAGGGACAAAGUUGCGUGG` | C11orf24 | -0.5377 |
| `UUACGUUUCCUAGUCUCUG` | USP51 | 0.09342 |
| `AAUGUCUUCGUAGAGCAGC` | TPRA1 | -1.126 |
| `AAGUCUGACAGCUUCACCC` | PAK4 | -0.02017 |
| `UAUCAGUCCAUGGAUAUGC` | PDE5A | -0.005101 |
| `ACUGCAUUCACUCGGAUCU` | DCXR | 0.09973 |
| `UUUAAUCAUAGCAAACACG` | GP5 | -0.3174 |
| `UCUUUGUCUUCCAAUGCCC` | CCDC125 | -0.8012 |
| `UUGGGUCUCACCUCGUUGA` | YBX1P6 | -1.53 |
| `UCCCUUAGAGAGAAAAGGC` | DSCC1 | 1.028 |
| `AAUCACAAAAUUACUAUGC` | NBEAL1 | 0.08013 |
| `UCACUGUCUAACAGAAUGC` | ST8SIA4 | -1.277 |
| `UAGAGUACAAUUCAUCAUC` | SBF2 | 0.6289 |
| `UGUAUUGCAAGGCUACUGG` | ZNF878 | -0.3404 |
| `UUUCGGCAAUCUGAAUUCC` | NDUFAF4 | -0.425 |
| `UCUCAUGACAUGGAAAGGC` | ZDHHC4 | 0.3533 |
| `AAGCGAACGGUCUCAAUCU` | RFXANK | 0.2281 |
| `UUCGUGGUCACUCCUAGAG` | LYPLAL1 | -0.07145 |
| `UUCCCUCUUCCAAUGAUCG` | HTATSF1P2 | 0.01355 |
| `UCUUAAUAGAUUCCGAUCC` | UBR1 | -0.1408 |
| `UUUACGCACAUUUUCACGG` | TAF1L | 0.6981 |
| `UUGUAUAUCACAGUGAACC` | METTL7A | 0.6463 |
| `AAAGUUAACCUGGAAUUGG` | S100A7A | -0.4366 |
| `UCAGUGGAUCCAGAGAUGC` | C9orf131 | 0.02973 |
| `UAAAAUCUAGAGAAUGUAC` | LINC00545 | 0.877 |
| `UUCUCUUCGACAUUCAGAC` | G3BP1 | 1.196 |
| `UUAGGCACUCCAAAGAUCU` | LTK | 1.009 |
| `UCUUUCUCCACUCAUUAUC` | VEGFC | -1.086 |
| `UCUGUCUUGGCAGAUAUCC` | LOC285299 | -0.5542 |
| `AAUAGGUCUAAGACCUUGC` | NBN | 0.176 |
| `AAAGUGAACACGAAGAUUG` | RPL17 | -0.9013 |

The first 4 entries again:

{"strand": "AUAUCUCCCAUUCAUCAGC", "target gene": "PPCDC", "seed-corrected z-score": "0.1914"}
{"strand": "AUGAUUUGAAAUGAGUGCC", "target gene": "FAM170B", "seed-corrected z-score": "0.9928"}
{"strand": "UAAGGGAAAGGAGCGAGAA", "target gene": "ZNF843", "seed-corrected z-score": "-0.3962"}
{"strand": "AAAUAGGUCACUCCCUUGG", "target gene": "SDK1", "seed-corrected z-score": "0.9932"}